Assay results taken from EP0552142B2, “T CELL RECEPTOR PEPTIDES AS THERAPEUTICS FOR AUTOIMMUNE AND MALIGNANT DISEASE” (priority 1989, dated 1991).
Values joined by “and” are separate entries in the source; they are usually repeats but may differ in a detail not shown here. Equal entries are not always repeated. Part of at least one peptide drawing is inferred or uncertain, most often the ends. Marks after values point to notes of the source that are not given here. Ends that are not written are not given here.

Protein sequences, listed by entry. Tags and fused reporters are not part of them. Lines headed by an entry give the natural chain unless they say otherwise; changes in a name come on top.
UniProt P25188: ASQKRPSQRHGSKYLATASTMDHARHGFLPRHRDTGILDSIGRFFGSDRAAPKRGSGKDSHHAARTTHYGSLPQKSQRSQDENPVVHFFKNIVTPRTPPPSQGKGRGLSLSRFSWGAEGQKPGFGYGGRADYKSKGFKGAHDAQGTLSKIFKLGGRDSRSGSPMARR

What was measured:
Gp-S53 = target: T1, Gp-S53 (Cavia porcellus, UniProt P25188); assay: direct ELISA against plated Gp-S53 peptide; type: binding, guinea pig
T1 construct: Gp-S53 (residues 75-84); made in house; host or cells: chemical solid-phase synthesis

Gp-(S87-99) = target: T2, Gp-(S87-99) (Cavia porcellus, UniProt P25188); assay: direct ELISA against plated Gp-(S87-99) peptide; type: binding, guinea pig
T2 construct: made in house; host or cells: chemical solid-phase synthesis

EAE [1] = assay: prevention, suppression and treatment of EAE with TCR peptide (Example IX); type: in vivo, Lewis rats; conditions: for Clinical EAE, Max Clin. Signs: scale 0-4
[2] = delayed hypersensitivity (DH/DTH) ear swelling, T cell immunity to peptide; type: in vivo, Lewis rats
EAE [3] = conditions: Lewis rats immunized with the peptide; result in words
EAE [4] = assay: prevention and suppression of EAE by peptide immunization (Example II); conditions: for Clinical Score: 100 µg peptide in CFA SC day 0, group mean; for Histological Score, brain (Br) / Histological Score, spinal cord (Sc): peptide day 0, lesion score 1-4
EAE [5] = assay: transfer of EAE to naive rats by selected T cells; type: in vivo, Lewis rats; conditions: T cells from rats treated day 13 with peptide ID; selected with GPBP
TCR Vβ8 line + GPBP line = assay: T cell proliferation of mixed TCR Vβ8-specific and GPBP-specific lines; type: cell-based, Lewis rats; conditions: mixed lines from TCR peptide-protected rats
Gp-S49S = target: T3, Gp-S49S (Cavia porcellus, UniProt P25188); assay: direct ELISA against plated Gp-S49S peptide; type: binding, guinea pig
T3 construct: Peptide Gp-S49S defines region 69-84 of GPBP and has a C-terminal glycine; made in house; host or cells: chemical solid-phase synthesis

EAE [6] = assay: clinical EAE in rats treated with TCR peptide before or after onset (Example III); type: in vivo
LN cells = assay: T cell proliferation (3H-thymidine uptake) of lymph node cells; type: cell-based, Lewis rats; conditions: for T Cell Proliferation: popliteal LN cells day 20
[7] = TCR Vβ8 (39-59) d. 0, Gp-S49S d. 48, bleed d. 74, normalized to a 1:40 dilution
[8] = TCR Vβ8 (39-59) on d. 0, Gp-S49S on d. 48, bleed on d. 74, 1:80
[9] = TCR Vβ8-39-59 on day 0, Gp-S(87-99) on d. 44, bleed on d. 65, 1:320
[10] = i.d. in the ear, Day before onset
[11] = peptide 100 µg s.q. in CFA, Day -40
[12] = Experiment 1, 50 µg ID on day 13
[13] = Experiment 1, 100 µg SC in CFA on day 10
[14] = Experiment 1, 100 µg SC in CFA on day 13
[15] = Experiment 2, 50 µg ID on day 7
[16] = Experiment 2, 50 µg ID on day 14
[17] = Experiment 2, 200 µg ID on day 13

DMGHGLRLIHYSYDVNSTEKG [TCR Vβ8(39-59)]
Theoretical Absorbance against Gp-S53 (Gp-S53; [7]): (910) Absorbance (x 10^3) at 450-650 nm | Antisera Reactivity Against Gp-S53 (Gp-S53; [8]): 455 Absorbance (x 10^3) at 450-650 nm | Antisera Reactivity Against Gp-S53 (Gp-S53; [9]): 46 Absorbance (x 10^3) at 450-650 nm | Antisera Reactivity Against Gp-(S87-99) (Gp-(S87-99); [8]): 11 Absorbance (x 10^3) at 450-650 nm | Antisera Reactivity Against Gp-(S87-99) (Gp-(S87-99); [9]): 348 Absorbance (x 10^3) at 450-650 nm | Theoretical Absorbance against Gp-(S87-99) (Gp-(S87-99); TCR Vβ8-39-59 day 0, Gp-S(87-99) d. 44, bleed d. 65, normalized to a 1:40 dilution): (784) Absorbance (x 10^3) at 450-650 nm | increase of anti-S87-99 antibody responses (Gp-(S87-99); preimmunized and protected rats relative to untreated): > 4 fold | EAE/TOTAL (EAE [1]; 10µg i.d., day of onset): 6/6 | Onset (EAE [1]; 10µg i.d., day of onset): 12 | Clinical EAE, Duration (EAE [1]; 10µg i.d., day of onset, listed as TCR): 4.0 ± 0.9 days | Clinical EAE, Duration (EAE [1]; 10µg i.d., day of onset, listed as TCR peptide): 4.0 days | Clinical EAE, Max Clin. Signs (EAE [1]; 10µg i.d., day of onset): 2.8 ± 0.4 | EAE/TOTAL (EAE [1]; 50 µg i.d. in saline in the ear, Day 0): 5/6 | Clinical EAE, Duration (EAE [1]; 50 µg i.d. in the ear, Day 0): 3.0 ± 1.8 days | Onset (EAE [1]; 50 µg i.d. in the ear, Day 0): 15 | Clinical EAE, Max Clin. Signs (EAE [1]; 50 µg i.d. in the ear, Day 0): 1.8 ± 1.0 | Clinical EAE, Duration (EAE [1]; 50 µg i.d. in the ear, Day 7): 2.0 ± 1.9 days | EAE/TOTAL (EAE [1]; 50 µg i.d. in the ear, Day 7): 4/6 | Onset (EAE [1]; 50 µg i.d. in the ear, Day 7): 14 | Clinical EAE, Max Clin. Signs (EAE [1]; 50 µg i.d. in the ear, Day 7): 1.7 ± 1.4 | maximum clinical severity (EAE [1]; 50 µg i.d. on day 0, 7 or 11 after challenge, controls 3.4): 1.7-1.8 | duration of EAE (EAE [1]; 50 µg i.d. on day 0, 7 or 11 after challenge, controls 6.6 days): 3 to 4 days | EAE/TOTAL (EAE [1]; 50µg i.d., day of onset): 9/9 | Onset (EAE [1]; 50µg i.d., day of onset): 12 | Clinical EAE, Duration (EAE [1]; 50µg i.d., day of onset, listed as TCR): 3.1 ± 0.3 days | Clinical EAE, Duration (EAE [1]; 50µg i.d., day of onset, listed as TCR peptide): 3.1 days | Clinical EAE, Max Clin. Signs (EAE [1]; 50µg i.d., day of onset): 2.8 ± 0.3 | EAE/TOTAL (EAE [1]; EAE by 50 µg GP-MBP/CFA, peptide 100 µg s.q. in CFA 40 days prior to induction (Day -40)): 0/20 | Clinical EAE, Duration (EAE [1]; [10]): 2.5 ± 2.1 days | EAE/TOTAL (EAE [1]; [10]): 6/8 | Onset (EAE [1]; [10]): 12 | Clinical EAE, Max Clin. Signs (EAE [1]; [10]): 1.8 ± 1.3 | EAE/TOTAL (EAE [1]; peptide 100 µg s.q. in CFA at the same time as GP-MBP/CFA (Day 0)): 8/13 | Onset (EAE [1]; peptide 100 µg s.q. in CFA, Day 0): 13 | Clinical EAE, Duration (EAE [1]; peptide 100 µg s.q. in CFA, Day 0, listed as TCR/CFA): 2.0 days and 2.0 ± 1.8 days | Clinical EAE, Duration (EAE [1]; [11]): 0 ± 0 days | Clinical EAE, Max Clin. Signs (EAE [1]; [11]): 0 ± 0 | Clinical EAE, Duration (EAE [1]; peptide in CFA, Day 10): 3.6 ± 0.9 days | EAE/TOTAL (EAE [1]; peptide in CFA, Day 10): 5/5 | Onset (EAE [1]; peptide in CFA, Day 10): 13 | Clinical EAE, Max Clin. Signs (EAE [1]; peptide in CFA, Day 10): 2.8 ± 0.4 | rats with onset of EAE completely prevented (EAE [1]; peptide injected after GP-MBP challenge but before onset of clinical EAE): 4/19 | rats with all clinical signs of EAE completely suppressed (EAE [1]; peptide injected at the same time as GP-MBP challenge): 6/19 | EAE/TOTAL (EAE [1]; peptide s.q. in CFA on first day of clinical signs (Day onset)): 20/20 | Clinical EAE, Duration (EAE [1]; peptide s.q. in CFA, Day onset): 3.5 days | Onset (EAE [1]; peptide s.q. in CFA, Day onset): 12 | Clinical EAE, Duration (EAE [1]; peptide s.q. in CFA, Day onset, listed as TCR/CFA): 3.5 ± 1.4 days | Clinical EAE, Max Clin. Signs (EAE [1]; peptide s.q. in CFA, Day onset): 2.3 ± 0.9 | delayed hypersensitivity (DH) response, ear swelling ([2]; Vβ8(39-59)-immunized Lewis rats, challenge with 50 µg TCR Vβ8(39-59) peptide): 0.17 mm | DH reaction to intradermal (ID) challenge ([2]; rats immunized SC with 400 µg TCR Vβ8(39-59) in CFA, result in words): specific T cell response in vivo | DTH response ([2]; rats undergoing or recovered from EAE induced with GP-MBP/CFA, without prior exposure to the TCR peptide, p < 0.01 vs naive or CFA immunized rats): significant DTH response | protection against EAE (EAE [3]): prevented completely the induction of EAE | Clinical Score (EAE [4]; challenge GPBP 50 µg day 0): 0.7 ± 0.3 | Clinical Score (EAE [4]; challenge Gp-(S87-99) 100 µg day 44): 0.0 | Clinical Score (EAE [4]; challenge Gp-S49S 100 µg day 0): 0.5 | Clinical Score (EAE [4]; challenge Gp-S49S 100 µg day 44): 0.8 | Clinical Signs (EAE [4]; TCR Vβ8 (39-59) on d. 0, Gp-S49S on d. 48, observed to d. 74): None and 0/4 rats | Clinical Signs (EAE [4]; TCR Vβ8-39-59 on day 0, Gp-S(87-99) on d. 44, observed to d. 65): None and 0/4 rats | Histological Score, brain (Br) (EAE [4]; challenge Gp-(S87-99) day 44): Br: 0.5 ± 0.6 | Histological Score, spinal cord (Sc) (EAE [4]; challenge Gp-(S87-99) day 44): Sc: 0.8 ± 0.5 | Histological Score, brain (Br) (EAE [4]; challenge Gp-S49S day 44): Br: 1.8 ± 1.7 | Histological Score, spinal cord (Sc) (EAE [4]; challenge Gp-S49S day 44): Sc: 2.8 ± 1.0 | Ability to Transfer EAE (EAE [5]): YES | T Cell Proliferation, TCR Vβ8 line + GPBP line (TCR Vβ8 line + GPBP line): 140 cpm x 10^-3 | Theoretical Absorbance against Gp-S49S (Gp-S49S; [7]): (1750) Absorbance (x 10^3) at 450-650 nm | Antisera Reactivity Against Gp-S49S (Gp-S49S; [8]): 875 Absorbance (x 10^3) at 450-650 nm | Antisera Reactivity Against Gp-S49S (Gp-S49S; [9]): 38 Absorbance (x 10^3) at 450-650 nm | elevation of 26 day antibody responses to Gp-S49S and Gp-S53 (Gp-S49S; preimmunized rats relative to rats not treated with the TCR peptide): two to four fold | Day of Onset (EAE [6]; [12]): 13.4±0.5 | Disease Duration (EAE [6]; [12]): 3.2 ± 0.5 | Disease Incidence (EAE [6]; [12]): 5/5 | Disease Severity (EAE [6]; [12]): 2.6 ± 0.4 | Disease Duration (EAE [6]; [13]): 3.2 ± 0.4 | Disease Incidence (EAE [6]; [13]): 5/5 | Disease Severity (EAE [6]; [13]): 2.8 ± 0.4 | Day of Onset (EAE [6]; [14]): 13.0±0 | Disease Duration (EAE [6]; [14]): 4.0 ± 0 | Disease Incidence (EAE [6]; [14]): 5/5 | Disease Severity (EAE [6]; [14]): 3.0 ± 0 | Day of Onset (EAE [6]; Experiment 1, EAE induced with GPBP, 100 µg SC in CFA on day 10): 14.0±0.4 | Day of Onset (EAE [6]; [15]): 15.0±0.8 | Disease Duration (EAE [6]; [15]): 2.0 ± 2.0 | Disease Incidence (EAE [6]; [15]): 4/6 | Disease Severity (EAE [6]; [15]): 1.7 ± 1.4 | Day of Onset (EAE [6]; [16]): 16.0±1.0 | Disease Duration (EAE [6]; [16]): 2.3 ± 2.0 | Disease Incidence (EAE [6]; [16]): 4/6 | Disease Severity (EAE [6]; [16]): 1.7 ± 1.5 | Disease Duration (EAE [6]; Experiment 2, 50 µg on day 0): 2.3 ± 1.6 | Disease Incidence (EAE [6]; Experiment 2, 50 µg on day 0): 5/6 | Disease Severity (EAE [6]; Experiment 2, 50 µg on day 0): 1.8 ± 1.0 | Day of Onset (EAE [6]; Experiment 2, 50 µg on day 0 (day of EAE induction)): 15.6±2.6 | Day of Onset (EAE [6]; [17]): 14.0±1.4 | Disease Duration (EAE [6]; [17]): 3.0 ± 1.2 | Disease Incidence (EAE [6]; [17]): 6/6 | Disease Severity (EAE [6]; [17]): 2.3 ± 0.8 | Proliferation, LN (LN cells; LN cells 20 days after injection of 3 x 10^7 TCR Vβ8 peptide-specific T line cells along with GPBP/CFA): 90 cpm x 10^-3 | Proliferation, LN (LN cells; LN cells 20 days after injection of saline along with GPBP/CFA (control transfer)): 8 cpm x 10^-3 | T Cell Proliferation, LN (LN cells; LN cells of rats protected from EAE (400 µg TCR Vβ8(39-59) in CFA + 50 µg GPBP in CFA), 20 days after challenge, 5 x 10^5 cells/well): 27 cpm x 10^-3 | T Cell Proliferation (LN cells; rats given GP-BP + CFA day 0 and TCR Vβ8(39-59) 50 µg ID day 13): 30 cpm x 10^-3 | T Cell Proliferation (LN cells; rats given GP-BP + CFA day 0 and TCR Vβ8(39-59) 100 µg SC (in CFA) day 13): 39 cpm x 10^-3 | T Cell Proliferation (LN cells; rats given GP-BP + CFA day 0 and saline day 13 (Control), 5 x 10^5 cells): 31 cpm x 10^-3
